Experimental data as given in doi:10.1101/2021.10.08.463712.
These are yes or no findings as the source states them, for the method shown. In cells and extracts the contact can be indirect. These calls come from enrichment with a bait or labelling near it, and not all partners need be listed. Tags and fused reporters may be left off the sequences shown.

Amino acid sequences for entries named in this document (tags omitted).
UniProt Q9M086: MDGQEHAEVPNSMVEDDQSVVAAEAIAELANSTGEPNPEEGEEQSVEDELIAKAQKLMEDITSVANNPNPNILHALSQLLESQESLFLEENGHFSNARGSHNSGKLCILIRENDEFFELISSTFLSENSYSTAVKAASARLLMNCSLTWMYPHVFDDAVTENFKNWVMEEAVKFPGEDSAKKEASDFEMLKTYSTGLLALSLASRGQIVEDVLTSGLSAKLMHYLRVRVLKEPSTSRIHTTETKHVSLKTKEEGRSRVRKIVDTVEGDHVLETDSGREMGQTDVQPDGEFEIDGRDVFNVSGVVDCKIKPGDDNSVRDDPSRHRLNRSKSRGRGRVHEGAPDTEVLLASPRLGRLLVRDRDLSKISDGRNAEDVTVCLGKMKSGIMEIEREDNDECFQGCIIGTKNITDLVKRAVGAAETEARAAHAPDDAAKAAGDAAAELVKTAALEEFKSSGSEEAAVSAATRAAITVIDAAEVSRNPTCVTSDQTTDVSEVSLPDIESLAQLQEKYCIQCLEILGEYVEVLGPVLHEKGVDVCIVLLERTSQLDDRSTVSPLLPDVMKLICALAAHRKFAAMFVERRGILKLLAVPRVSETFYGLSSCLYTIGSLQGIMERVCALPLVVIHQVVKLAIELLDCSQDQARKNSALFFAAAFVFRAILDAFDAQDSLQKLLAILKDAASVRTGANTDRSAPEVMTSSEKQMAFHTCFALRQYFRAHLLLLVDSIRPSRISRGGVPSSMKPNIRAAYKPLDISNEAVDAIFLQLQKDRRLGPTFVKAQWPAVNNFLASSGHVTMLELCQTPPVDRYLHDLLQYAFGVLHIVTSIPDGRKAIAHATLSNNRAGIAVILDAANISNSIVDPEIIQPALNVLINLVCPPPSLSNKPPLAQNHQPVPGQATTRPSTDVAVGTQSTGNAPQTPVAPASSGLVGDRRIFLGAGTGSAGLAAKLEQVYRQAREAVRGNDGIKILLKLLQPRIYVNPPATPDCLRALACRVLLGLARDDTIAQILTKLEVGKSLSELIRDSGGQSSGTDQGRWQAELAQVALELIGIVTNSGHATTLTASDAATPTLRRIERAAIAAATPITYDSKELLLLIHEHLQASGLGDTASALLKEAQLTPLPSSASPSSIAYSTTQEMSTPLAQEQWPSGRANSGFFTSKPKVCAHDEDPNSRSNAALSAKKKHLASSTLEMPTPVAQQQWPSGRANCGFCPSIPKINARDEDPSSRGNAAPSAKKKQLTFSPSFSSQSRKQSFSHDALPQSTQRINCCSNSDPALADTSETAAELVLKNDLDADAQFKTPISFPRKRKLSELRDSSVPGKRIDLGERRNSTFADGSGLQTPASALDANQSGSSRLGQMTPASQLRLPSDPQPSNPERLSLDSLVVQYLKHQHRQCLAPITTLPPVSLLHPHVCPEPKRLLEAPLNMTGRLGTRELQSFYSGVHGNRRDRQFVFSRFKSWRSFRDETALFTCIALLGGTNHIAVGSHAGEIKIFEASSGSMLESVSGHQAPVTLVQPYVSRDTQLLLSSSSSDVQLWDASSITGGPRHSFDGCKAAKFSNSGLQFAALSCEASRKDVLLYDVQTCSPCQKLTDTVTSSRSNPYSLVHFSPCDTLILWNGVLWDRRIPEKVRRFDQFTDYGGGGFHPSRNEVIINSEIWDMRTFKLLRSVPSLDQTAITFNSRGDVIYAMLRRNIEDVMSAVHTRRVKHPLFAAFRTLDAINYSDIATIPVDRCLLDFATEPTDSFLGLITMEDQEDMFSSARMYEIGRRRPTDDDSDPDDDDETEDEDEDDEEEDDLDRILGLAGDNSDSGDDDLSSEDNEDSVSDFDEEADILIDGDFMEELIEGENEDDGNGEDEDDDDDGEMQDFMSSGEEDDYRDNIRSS
UniProt O22467: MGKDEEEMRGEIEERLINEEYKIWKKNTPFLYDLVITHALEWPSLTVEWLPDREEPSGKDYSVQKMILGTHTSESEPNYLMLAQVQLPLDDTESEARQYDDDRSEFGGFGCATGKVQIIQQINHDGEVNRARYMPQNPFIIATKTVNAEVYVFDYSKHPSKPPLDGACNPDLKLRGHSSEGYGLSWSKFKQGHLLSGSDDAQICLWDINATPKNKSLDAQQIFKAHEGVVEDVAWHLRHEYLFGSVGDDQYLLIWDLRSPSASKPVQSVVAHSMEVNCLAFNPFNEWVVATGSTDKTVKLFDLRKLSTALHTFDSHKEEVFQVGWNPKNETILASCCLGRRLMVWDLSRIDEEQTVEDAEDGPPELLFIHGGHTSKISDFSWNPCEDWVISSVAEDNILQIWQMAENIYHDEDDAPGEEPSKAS

T1: GFP-RZ-1C (Arabidopsis thaliana) (UniProt Q8RWN5)
T1 sequence: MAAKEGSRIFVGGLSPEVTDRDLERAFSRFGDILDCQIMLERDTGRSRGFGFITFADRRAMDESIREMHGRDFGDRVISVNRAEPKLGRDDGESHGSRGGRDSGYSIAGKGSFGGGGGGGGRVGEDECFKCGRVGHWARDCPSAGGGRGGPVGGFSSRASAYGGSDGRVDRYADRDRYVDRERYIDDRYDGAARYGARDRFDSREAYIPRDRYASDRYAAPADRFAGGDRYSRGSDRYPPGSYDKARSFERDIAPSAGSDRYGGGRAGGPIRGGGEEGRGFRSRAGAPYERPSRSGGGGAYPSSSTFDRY

B1: Histone deacetylase HDA19 (enzyme, UniProt O22446 1-501)
chain: MDTGGNSLASGPDGVKRKVCYFYDPEVGNYYYGQGHPMKPHRIRMTHALLAHYGLLQHMQVLKPFPARDRDLCRFHADDYVSFLRSITPETQQDQIRQLKRFNVGEDCPVFDGLYSFCQTYAGGSVGGSVKLNHGLCDIAINWAGGLHHAKKCEASGFCYVNDIVLAILELLKQHERVLYVDIDIHHGDGVEEAFYATDRVMTVSFHKFGDYFPGTGHIQDIGYGSGKYYSLNVPLDDGIDDESYHLLFKPIMGKVMEIFRPGAVVLQCGADSLSGDRLGCFNLSIKGHAECVKFMRSFNVPLLLLGGGGYTIRNVARCWCYETGVALGVEVEDKMPEHEYYEYFGPDYTLHVAPSNMENKNSRQMLEEIRNDLLHNLSKLQHAPSVPFQERPPDTETPEVDEDQEDGDKRWDPDSDMDVDDDRKPIPSRVKREAVEPDTKDKDGLKGIMERGKGCEVEVDESGSTKVTGVNPVGVEEASVKMEEEGTNKGGAEQAFPPKT
B2: MSI4 (protein, UniProt O22607 1-507)
chain: MESDEAAAVSPQATTPSGGTGASGPKKRGRKPKTKEDSQTPSSQQQSDVKMKESGKKTQQSPSVDEKYSQWKGLVPILYDWLANHNLVWPSLSCRWGPQLEQATYKNRQRLYLSEQTDGSVPNTLVIANCEVVKPRVAAAEHISQFNEEARSPFVKKYKTIIHPGEVNRIRELPQNSKIVATHTDSPDVLIWDVETQPNRHAVLGAANSRPDLILTGHQDNAEFALAMCPTEPFVLSGGKDKSVVLWSIQDHITTIGTDSKSSGSIIKQTGEGTDKNESPTVGPRGVYHGHEDTVEDVAFSPTSAQEFCSVGDDSCLILWDARTGTNPVTKVEKAHDADLHCVDWNPHDDNLILTGSADNTVRLFDRRKLTANGVGSPIYKFEGHKAAVLCVQWSPDKSSVFGSSAEDGLLNIWDYDRVSKKSDRAAKSPAGLFFQHAGHRDKVVDFHWNASDPWTIVSVSDDCETTGGGGTLQIWRMSDLIYRPEEEVVAELEKFKSHVMTCASKP
B3: DDB1A (protein, UniProt Q9M0V3 1-1088)
chain: MSSWNYVVTAHKPTSVTHSCVGNFTSPQELNLIVAKCTRIEIHLLTPQGLQPMLDVPIYGRIATLELFRPHGEAQDFLFIATERYKFCVLQWDPESSELITRAMGDVSDRIGRPTDNGQIGIIDPDCRLIGLHLYDGLFKVIPFDNKGQLKEAFNIRLEELQVLDIKFLFGCAKPTIAVLYQDNKDARHVKTYEVSLKDKDFVEGPWSQNSLDNGADLLIPVPPPLCGVLIIGEETIVYCSASAFKAIPIRPSITKAYGRVDVDGSRYLLGDHAGMIHLLVITHEKEKVTGLKIELLGETSIASTISYLDNAVVFVGSSYGDSQLVKLNLHPDAKGSYVEVLERYINLGPIVDFCVVDLERQGQGQVVTCSGAFKDGSLRVVRNGIGINEQASVELQGIKGMWSLKSSIDEAFDTFLVVSFISETRILAMNLEDELEETEIEGFLSQVQTLFCHDAVYNQLVQVTSNSVRLVSSTTRELRDEWHAPAGFTVNVATANASQVLLATGGGHLVYLEIGDGKLTEVQHALLEYEVSCLDINPIGDNPNYSQLAAVGMWTDISVRIFSLPELTLITKEQLGGEIIPRSVLLCAFEGISYLLCALGDGHLLNFQMDTTTGQLKDRKKVSLGTQPITLRTFSSKSATHVFAASDRPTVIYSSNKKLLYSNVNLKEVSHMCPFNSAAFPDSLAIAREGELTIGTIDDIQKLHIRTIPLGEHARRICHQEQTRTFGICSLGNQSNSEESEMHFVRLLDDQTFEFMSTYPLDSFEYGCSILSCSFTEDKNVYYCVGTAYVLPEENEPTKGRILVFIVEDGRLQLIAEKETKGAVYSLNAFNGKLLAAINQKIQLYKWMLRDDGTRELQSECGHHGHILALYVQTRGDFIVVGDLMKSISLLLYKHEEGAIEERARDYNANWMSAVEILDDDIYLGAENNFNLLTVKKNSEGATDEERGRLEVVGEYHLGEFVNRFRHGSLVMRLPDSEIGQIPTVIFGTVNGVIGVIASLPQEQYTFLEKLQSSLRKVIKGVGGLSHEQWRSFNNEKRTAEARNFLDGDLIESFLDLSRNKMEDISKSMNVQVEELCKRVEELTRLH

Target: T1, GFP-RZ-1C (Arabidopsis thaliana)
Experiment: affinity purification with mass spectrometry

Molecule	binding
ACINUS	binds
DCAF1 (from UniProt Q9M086 1-1883)	binds
EMB1579	binds
MSI1 (from UniProt O22467 1-424)	binds
B1	binds
B2	binds
B3	binds
